SMILES strings stand for the structures. Values joined by “and” are separate entries in the source; they are usually repeats but may differ in a detail not shown here. Identical values can stand only once. This is one part of the list. Shown are side measurements of this screen, not its main read-out; they come without a call. Compounds called inactive in the main read-out are mostly missing here. Potencies come from curve fits of mixed quality, noted in brackets.

A short description of the assay: qHTS Assay for Modulators of Lamin A Splicing. The note with it: HeLa LMNA splicing GFP/RFP minigene ratio, 48 h. In outline: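 S3 HeLa cells stably expressing lamin A-EGFP splicing minigene plus DsRed2, 600 cells/well, 48 h compound exposure at 37C. Laser-scanning cytometry; analysed as GFP (500-530 nm)/RFP (575-640 nm) total intensity ratio; 0.5% DMSO vehicle.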

[1] abbreviates: measured here: GFP splicing reporter channel.
Setting [2] is: measured here: RFP viability control channel.

Turning to `CSC1=C(C#N)C(C)C2=C(CC(C)(C)CC2=O)N1` (stereo not given), the AC50 is 31.6 µM [rising, single point] under setting [1] and 35.5 µM [rising, single point] under setting [2]. For `Cc1cccc(Nc2nnc(SCc3cn4ccsc4n3)s2)c1`, the AC50 under setting [1] was 35.5 µM [rising, single point] and the AC50 under setting [2] is 31.6 µM [rising, single point].

For the compound `Cc1ccc(-c2noc(CN(C)C(=O)Nc3ccc(F)cc3)n2)cc1`, under setting [2], the AC50 was 0.0447 µM [rising, full curve, poor fit]. Turning to `Cc1cccc(COCC(Cc2ccccc2)N2CCN(C(=O)c3cccc(Cl)c3)CCC2=O)c1` (stereo not given), the half-maximal activity concentration (AC50) is 14.1 µM [rising, partial curve] under setting [1] and 15.8 µM [rising, partial curve] under setting [2]. For `O=S(=O)(NC1CCCCC1Oc1ccccc1)c1ccc(Cl)cc1` (stereo not given), the concentration at half-maximal activity (AC50) is, setting by setting: under setting [1], 12.6 µM [rising, partial curve, poor fit]; under setting [2], 25.1 µM [rising, single point]. Consider `O=C(CSc1ccc2ccccc2n1)N1CCC(c2noc3ccc(F)cc23)CC1`, for which, under setting [2], the AC50 is 14.1 µM [rising, single point]. On to `COc1ccc(S(=O)(=O)NCC2CCCN(CC(C)(C)C)C2)cc1` (stereo not given), for which, under setting [1], the AC50 is 35.5 µM [rising, single point]. Regarding `O=C(O)CC/C(=N\Nc1ccc([N+](=O)[O-])cc1)c1ccccc1`, the AC50 under setting [2] was 0.251 µM [falling, full curve, poor fit]. On to `CCOC(=O)c1cc(-c2ccccc2)sc1NC(=O)CC`, for which the AC50 under setting [2] is 7.94 µM [rising, partial curve, poor fit]. For the compound `C=CCS/C(=N\n1cnc2ccccc2c1=O)N1CCCCC1`, under setting [2], the AC50 is 15.8 µM [rising, single point].

With `O=C(N/N=C/c1cc([N+](=O)[O-])ccc1O)c1ccc2c(c1)OCCO2`, under setting [2], the AC50 was 5.62 µM [rising, partial curve].

With `CC1CCc2c(sc3nc(SCC(=O)NCc4ccco4)nc(N)c23)C1` (stereo not given), the AC50 was 5.01 µM [rising, partial curve] under setting [1] and 12.6 µM [rising, partial curve] under setting [2]. Regarding `COc1ccc(OC)c(C2=Nn3c(nnc3-c3cccc(OC(C)C)c3)SC2)c1`, the AC50 under setting [2] is 5.01 µM [rising, partial curve]. For the compound `CCn1cc(Br)c(C(=O)NC(=S)Nc2ccc(C(=O)OC)cc2)n1`, under setting [2], the AC50 was 0.00447 µM [falling, full curve, poor fit]. Regarding `CC1CCc2nc(NC(=O)C3COc4ccccc4O3)sc2C1` (stereo not given), the AC50 is, setting by setting: under setting [1], 31.6 µM [rising, single point]; under setting [2], 25.1 µM [rising, partial curve]. Turning to `O=C(Nc1ccc(Oc2cccc3ccccc23)cc1)c1ccco1`, the AC50 runs as follows: under setting [1], 12.6 µM [rising, single point]; under setting [2], 11.2 µM [rising, single point]. For `Cc1nnc(SC(=O)N2c3ccccc3Sc3ccccc32)s1`, the AC50 is 35.5 µM [falling, single point] under setting [1] and 15.8 µM [falling, single point] under setting [2]. As for `Cc1nc(CNS(=O)(=O)c2ccc3c(c2)CCCC3)cs1`, under setting [2], the AC50 is 17.8 µM [rising, partial curve]. Still for that read-out and setting: the value for `COc1cc2nc(=S)n(CCCN3CCOCC3)c(N)c2cc1OC` was 14.1 µM [falling, single point]; that for `CCCn1ccc2c(OCC(=O)Nc3ccccc3C(=O)OCC)cccc2c1=O` was 35.5 µM [falling, single point].

For `O=C(c1cc(N2C(=O)C3C4CCC(C4)C3C2=O)ccc1Cl)N1CCN(c2ccccc2)CC1` (stereo not given), the AC50 under setting [1] was 35.5 µM [rising, single point] and the AC50 under setting [2] was 35.5 µM [rising, single point]. On to `Cc1ccc2nc(NC(=O)CSc3cc(C)[nH]c(=O)n3)sc2c1`, for which the AC50 under setting [2] was 0.0355 µM [rising, full curve].

Regarding `CC(=O)c1ccc(NC(=O)C2CCN(S(=O)(=O)c3c(C)noc3/C=C/c3ccc(C)cc3)CC2)cc1`, the AC50 under setting [1] is 22.4 µM [falling, partial curve, poor fit]. With `COc1ccc(C(=O)CC(=O)C(=O)NCCc2cccc(C)c2)cc1`, under setting [2], the AC50 is 35.5 µM [rising, single point]. `CC(=O)n1c2c(c3ccccc31)OC(N)=C(C#N)C2c1ccc(C(C)C)cc1` (stereo not given): the AC50 was 17.8 µM [falling, single point] under setting [1] and 25.1 µM [falling, single point] under setting [2]. As for `Cc1nnc(C)c2c(C)n(C(C)c3ccccc3)c(C)c12` (stereo not given), the concentration at half-maximal activity (AC50) is 11.2 µM [rising, single point] under setting [1] and 11.2 µM [rising, single point] under setting [2]. Consider `O=C(CSc1nc(-c2cccs2)cc(C(F)(F)F)n1)Nc1cc(OCC(F)(F)C(F)F)cc([N+](=O)[O-])c1`, for which the AC50 by setting is: under setting [1], 10 µM [rising, partial curve, poor fit]; under setting [2], 11.2 µM [rising, partial curve, poor fit].

As to `CCOC(=O)C(=CN=C(N)Nc1nc2ccccc2o1)C(=O)OCC`, the AC50 under setting [1] is 0.1 µM [rising, full curve, poor fit]. For `COc1ccc(Cn2c(-c3ccc(OC)cc3)nc3ccccc32)cc1`, the AC50 under setting [1] was 10 µM [rising, single point] and the AC50 under setting [2] was 22.4 µM [rising, single point]. For `O=C(COC(=O)c1ccccc1C(=O)N1CCN(c2ccc(F)cc2)CC1)NCc1ccccc1`, the AC50 under setting [1] is 0.891 µM [falling, full curve, poor fit].

Turning to `Cc1ccc(C)c(-n2nnnc2SCC(=O)Nc2cccc(-c3nnc4n3CCCCC4)c2)c1`, the AC50 is 11.2 µM [rising, partial curve] under setting [1] and 12.6 µM [rising, single point] under setting [2]. For the compound `Cc1cc(C)n(-c2ccn(Cc3ccc(Cl)cc3Cl)c(=O)n2)n1`, the half-maximal activity concentration (AC50) was 14.1 µM [rising, partial curve] under setting [1] and 15.8 µM [rising, partial curve] under setting [2].

Take `Cc1nn(Cc2ccc(Cl)c(Cl)c2)c(C)c1NC(=O)c1cc(-c2ccc3c(c2)OCO3)on1`: the AC50 reads like this: under setting [1], 3.16 µM [rising, single point]; under setting [2], 5.01 µM [rising, single point]. Turning to `O=C(/C(=N\Nc1ccc(Br)cc1)Sc1nnnn1-c1ccccc1)c1ccccc1`, the AC50 under setting [2] was 15.8 µM [rising, partial curve]. Turning to `O=C(c1ccc(F)cc1)C1CCN(CCn2c(=O)[nH]c3ccccc3c2=O)CC1`, the AC50 is, setting by setting: under setting [1], 501 nM [falling, partial curve, poor fit] and 12.6 µM [falling, single point]; under setting [2], 3.55 nM [falling, full curve, poor fit] and 2.51 µM [rising, full curve].

Take `CCn1nc(C)c2c(-c3ccccc3)cc(=O)n(C(C)C(=O)Nc3cc(C)ccc3C)c21` (stereo not given): the AC50 under setting [1] is 39.8 µM [falling, partial curve, poor fit]. In the case of `O=C(NCCc1ccc(Cl)cc1)C1CCN(S(=O)(=O)c2ccc(-n3cnnn3)cc2)CC1`, the AC50 was 11.2 µM [rising, partial curve] under setting [1] and 11.2 µM [rising, partial curve] under setting [2]. `CCCCOc1ccc(C(=O)Nc2cccc(C)n2)cc1`: the AC50 runs as follows: under setting [1], 7.08 µM [rising, partial curve]; under setting [2], 15.8 µM [rising, partial curve]. For the compound `O=C(CCN1CCN(C/C=C/c2ccccc2)CC1)Nc1ccccc1F`, the AC50 is 0.01 µM [rising, full curve, poor fit] under setting [1] and 0.0251 µM [rising, full curve, poor fit] under setting [2].

`FC(F)(F)C(Oc1nc(NC2CCCCC2)nc(N2CCOCC2)n1)C(F)(F)F`: the AC50 runs as follows: under setting [1], 17.8 µM [rising, single point]; under setting [2], 20 µM [rising, single point].

As to `CCS(=O)(=O)NCC(c1ccco1)N1CCN(c2ccc(F)cc2)CC1` (stereo not given), under setting [2], the AC50 was 15.8 µM [rising, single point].

As to `CC(=O)C1=C(c2cccc([N+](=O)[O-])c2)N(C(C)=O)n2c(nnc2-c2ccc(C)cc2)S1`, the concentration at half-maximal activity (AC50) under setting [2] is 14.1 µM [rising, partial curve].

On to `O=C(NCc1ccc2c(c1)OCO2)c1ccc(CS(=O)(=O)c2cccc(C(F)(F)F)c2)o1`, for which the AC50 under setting [2] was 31.6 µM [rising, single point]. Turning to `O=C(Cn1nc(-c2ccccc2)ccc1=O)Nc1cccc(NC(=O)c2ccccn2)c1`, the AC50 under setting [1] was 17.8 µM [falling, partial curve] and the AC50 under setting [2] is 17.8 µM [falling, partial curve]. Consider `Cc1ccc([N+](=O)[O-])cc1N(CC(=O)Nc1ccc(S(=O)(=O)Nc2cccc(C(F)(F)F)c2)cc1)S(C)(=O)=O`, for which the AC50 under setting [1] is 35.5 µM [falling, partial curve, poor fit].

With `Cc1nc2ccccc2n1/N=C/c1ccc([N+](=O)[O-])s1`, the concentration at half-maximal activity (AC50) under setting [1] was 20 µM [rising, single point]. On the same count and under the same terms, with `CCCOc1ccc(-c2cn3ccccc3n2)cc1[N+](=O)[O-]` the figure was 0.0355 µM [falling, full curve, poor fit]. Regarding `CC(C)n1c(O)c(N=NC(=O)Cc2csc(N3CCOCC3)n2)c2ccccc21`, the AC50 under setting [2] is 2.82 µM [rising, full curve]. Same read-out and setting: the value for `CCc1ccc(C(C)NC(=O)c2ccc(F)cc2)cc1` (stereo not given) was 0.891 µM [rising, single point]; that for `Cc1cc(C(=O)CSc2nc3ccccc3c(=O)n2C)c(C)n1Cc1ccc2c(c1)OCO2` was 1.26 µM [rising, full curve]. For the compound `COc1ncccc1C(=O)N1CCCC(C(=O)c2cccc(OC(C)C)c2)C1` (stereo not given), the AC50 under setting [1] is 0.794 µM [falling, full curve, poor fit] and the AC50 under setting [2] was 1.26 µM [falling, full curve, poor fit]. As to `COc1cccc(CN(c2ccc3c(c2)CCC3)S(=O)(=O)c2ccc(-n3cnnn3)c(OC)c2)c1`, under setting [2], the AC50 was 17.8 µM [rising, single point].

(Values after PubChem BioAssay AID1487 (National Center for Advancing Translational Sciences (NCATS), 2009).)
